According to PubChem BioAssay AID1794845 (National Center for Advancing Translational Sciences (NCATS), 2023):
The whole screen tested about 6,900 compounds, of which fewer than 10 were called active. The call rests on the fitted dose curve; in most records, active means well fitted curve in the direction sought with a large enough effect; inconclusive means small, poorly fitted or top-dose-only effect, or another doubt; inactive means no such curve, though single readings can be large or run the other way. This is one part of the list.

Amino acid sequences for entries named in this document (tags omitted). A change or cut given only in a name is not applied to a line headed by its entry.
UniProt C7C422: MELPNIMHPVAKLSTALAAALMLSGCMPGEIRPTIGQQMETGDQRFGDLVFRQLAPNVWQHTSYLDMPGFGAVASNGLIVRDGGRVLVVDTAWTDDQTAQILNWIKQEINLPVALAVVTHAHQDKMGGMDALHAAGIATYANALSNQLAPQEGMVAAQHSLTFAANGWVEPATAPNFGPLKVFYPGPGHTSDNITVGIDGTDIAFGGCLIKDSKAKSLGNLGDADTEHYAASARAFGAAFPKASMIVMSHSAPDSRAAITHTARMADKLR

The compounds below were run against Metallo-beta-lactamase type 2 (Klebsiella pneumoniae) (UniProt C7C422) (assay: qHTS to identify inhibitors of the New Delhi Metallo-beta-lactamase (NDM): primary screen against the NCATS Gemini Collection). Conditions: NDM-1 enzyme, meropenem hydrolysis, absorbance 300 nm; at 38.4 µM (top of the series) unless noted.
Procedure, shortened: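 Meropenem hydrolysis (50 uM final) by 2 nM NDM-1 read as 300 nm absorbance after 30 min, following >30 min compound–enzyme preincubation in HEPES pH 7.0 with 1 uM ZnSO4 and 0.01% Tween20.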
Further: % of control where 0% means no effect.

Compound	activity % (negative = inhibition)
FC(F)(F)CN1C2CCC1CN(c1nnc(Cl)c3ccccc13)C2	inactive: -1.65%
CSc1nccc(N2CCC3(CCCN(CC4CC4)C3)C2)n1 (stereo not drawn)	inactive: 23.3%
CCCS(=O)(=O)Nc1ccc(=O)n2c1[C@@H]1C[C@@H](CN(C(=O)Nc3ccc(OC)cc3)C1)C2	inactive: 1%
C#C[C@H]1CN2CC[C@H]1C[C@@H]2CNC(=O)C1CC1	inactive: 37.1% [at 77.1 µM]
COc1cccc(CC(=O)N2CCCCCC2CN2CCCC2)c1 (stereo not drawn)	inactive: -0.424%
C=C[C@H]1CN2CC[C@H]1C[C@@H]2CNCc1ccc2c(c1)OCO2	inactive: -6.53% [at 57.5 µM]
O=c1c(C2CCCCC2)ccc2n1C[C@H]1C[C@@H]2CN(S(=O)(=O)c2ccccc2)C1	inactive: 20.1% [at 57.5 µM]
C=C[C@H]1CN2CC[C@H]1C[C@@H]2CNC(=O)CC(C)(C)C	inactive: -2% [at 77.1 µM]
Cc1ccc(CN2C[C@@H]3C(=O)N(C)C(=O)[C@@H]3C2)o1	inactive: 14.3%
O=[S+]1([O-])NC2(CCN(Cc3cccnc3)C2)COc2ccncc21 (stereo not drawn)	inactive: 2.62%
CC(C)NC(=O)NC[C@H]1C[C@@H]2CCN1C[C@@H]2CN1CCSCC1	inactive: 2.5% [at 57.5 µM]
O=C(c1cccs1)N1C[C@@H]2C[C@H](C1)c1ccc(C3CCCCC3)c(=O)n1C2	inactive: 3.53% [at 57.5 µM]
CC(C)C1CN2CCCC2CN1 (stereo not drawn)	inactive: -8.69% [at 77.1 µM]
O=C(O)c1cn(Cc2ccc(F)cc2Cl)nn1	inactive: 4.83%
CC(=O)N(C1CC1)C1CCOC2(CCNCC2)C1 (stereo not drawn)	inactive: -0.568%
CN1CC2(C1)C(=O)N(C)C(=O)[C@@H]1C[C@@H](O)CN12	inactive: 0.427% [at 77.1 µM]
O=C(C1CCC1)N1[C@H]2CC[C@@H]1c1cnc(-c3ccccc3)nc1C2	inactive: 14%
O=C(NCc1ccc(F)cc1)[C@H]1CN2CC[C@H]1C[C@@H]2Cn1cc(-c2ccccc2)nn1	inactive: 5.86% [at 57.5 µM]
O=C(c1ccc2c(c1)OCO2)N1CCC(C(=O)O)(c2ccccc2)CC1	inactive: 3.51%
COc1cccc(CN2CCCCCCNC(=O)[C@@H]3CCC[C@@H]32)n1	inactive: -2.35%
O=C(Nc1nccs1)[C@H]1CN2CC[C@H]1C[C@@H]2Cn1cc(C2(O)CCCCC2)nn1	inactive: 21.5% [at 57.5 µM]
COc1ccccc1-c1cc([C@H]2CN3CC[C@H]2C[C@@H]3CNS(=O)(=O)c2ccccc2)n(C)n1	inactive: -1.55%
Cc1ccc([C@@H]2CN(C(=O)c3ccco3)[C@@H]3C4CCN(CC4)[C@@H]32)cc1	inactive: 1.13%
COC[C@H]1C[C@@H](NCc2cn(C)c3ccccc23)[C@H](O)[C@@H]1O	inactive: 4.4% [at 57.5 µM]
Cc1ncc2c(n1)C[C@@H]1CC[C@H]2N1C(=O)C1(c2ccccc2)CC1	inactive: 6.22%
O=C(Nc1ccc2n(c1=O)C[C@H]1C[C@@H]2CN(C(=O)NC2CCCCC2)C1)c1ccco1	inactive: 37.6% [at 57.5 µM]
c1cnc2c(c1)NC1(CCCNC1)C(=NC1CCCC1)N2 (stereo not drawn)	inactive: -0.619%

Compound	activity % (negative = inhibition)
Cn1nc(-c2ccc3ccccc3c2)cc1[C@H]1CN2CC[C@H]1C[C@@H]2CNC(=O)c1ccco1	inactive: 8.72%
O=C1Nc2ccccc2C12CCN(Cc1cccnc1)C2 (stereo not drawn)	inactive: 11.9% [at 57.5 µM]
CC1CCN(CC2CCCCCN2C(=O)Cc2ccccc2)CC1 (stereo not drawn)	inactive: 10.8%
Cc1cc(C)n(CCC(=O)N2[C@H]3CC[C@@H]2c2cnc(-c4ccccc4)nc2C3)n1	inactive: 8.05%
Cc1cccnc1CN1CCN2C(=O)N(c3ccccc3)C[C@H]2C1	inactive: -3.51% [at 57.5 µM]
O=S(=O)(NC[C@H]1C[C@@H]2CCN1C[C@@H]2CN1CCOCC1)c1ccccc1	inactive: 1.12% [at 57.5 µM]
CCOc1ccc2c(n1)CCNC2	inactive: 15.8%
O=[S+]([O-])(C1CC1)N1C2CCC1CN(Cc1cccnc1)C2	inactive: -0.192%
CNC1CCc2ccccc21 (stereo not drawn)	inactive: 0.762% [at 77.1 µM]
c1ccc(-c2ncc3c(n2)C[C@@H]2CC[C@H]3N2)cc1	inactive: 3.02%
O=C(NCc1ccc(F)cc1)[C@H]1CN2CCC1C[C@@H]2Cn1cc(CSc2ccccc2)nn1 (stereo partly drawn)	inactive: -1.93%
COC1CN(c2ccc(C)cc2)C12CCNCC2 (stereo not drawn)	inactive: 2.7%
COc1ccc(NC(=O)N2C[C@@H]3C[C@H](C2)c2c(NC(=O)CSC)ccc(=O)n2C3)cc1	inactive: 11.6%
Cc1ccc(C)c(CC(=O)N2CCN(CCO)CC(O)C2)c1 (stereo not drawn)	inactive: -0.882%
CC[C@H]1CN2CC[C@H]1C[C@@H]2CNCc1ccc(-c2ccccc2)cc1	inactive: -0.692% [at 57.5 µM]
COc1cccc(CC(=O)N2CC[C@H]3C(=O)NCCCCCN(Cc4cccnc4)[C@@H]3C2)c1	inactive: 0.121%
COc1cccc([C@@H]2CCN(Cc3[nH]c4ccccc4c3C)C[C@H]2O)c1	inactive: -1.13%
COCC(=O)NC[C@H]1C[C@@H]2CCN1C[C@@H]2CN1CCCCC1	inactive: -3.93% [at 57.5 µM]
O=C1N(Cc2ccccn2)C[C@H]2CN(Cc3nccs3)CCN12	inactive: -0.427% [at 57.5 µM]
CC(=O)N1CCCC2(CC(c3cccnc3)=NO2)C1 (stereo not drawn)	inactive: -0.134% [at 57.5 µM]
COc1ccc(-c2cc([C@H]3CN4CC[C@H]3C[C@@H]4CN)nc(C)n2)cc1OC	inactive: 9.84% [at 57.5 µM]
Cn1nc(-c2ccc(F)cc2)cc1[C@H]1CN2CC[C@H]1C[C@@H]2CNC(=O)c1cccs1	inactive: -1.12% [at 57.5 µM]
COc1cccc([C@H]2CN(c3cc(C)nc(N)n3)[C@@H]3C4CCN(CC4)[C@H]23)c1	inactive: 1.45%
O=C1CO[C@H]2CN(Cc3ccccc3)C[C@H]2N1Cc1cccnc1	inactive: -2.74% [at 57.5 µM]
O=C(NCc1ccccc1)c1cn(C2CNC2)nn1	inactive: -0.0705%
CCN1CCCNCC12CCOCC2	inactive: 17.5%

Molecules from the list above that have a Cl atom:
Compound	activity % (negative = inhibition)
FC(F)(F)CN1C2CCC1CN(c1nnc(Cl)c3ccccc13)C2	inactive: -1.65%
O=C(O)c1cn(Cc2ccc(F)cc2Cl)nn1	inactive: 4.83%

Copied from the list.
COc1ccc(NC(=O)N2C[C@@H]3C[C@H](C2)c2c(NC(=O)CSC)ccc(=O)n2C3)cc1 | activity % (negative = inhibition): inactive: 11.6%
CCOc1ccc2c(n1)CCNC2 | activity % (negative = inhibition): inactive: 15.8%
CNC1CCc2ccccc21 (stereo not drawn) | activity % (negative = inhibition): inactive: 0.762% [at 77.1 µM]
